Test results from the supplement of paper PMC4604168 (melanoma cell lines).
Some of the results follow. Single values are uncertain, as repeats are few or missing.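 Cells were imaged in 1,536-well plates, and nuclei stained with an antibody against cleaved PARP were counted against all DNA-stained nuclei to give the apoptosis fraction. Screening doses were chosen to leave most cells alive, and resting and induced cleaved-PARP levels differ strongly between cell lines.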

Test system: LB2518-MEL
Assay: cleaved PARP positive nuclei fraction relative to DMSO control; melanoma cells; higher = more apoptosis
Conditions: library dose: low library concentration; 72 h

In order of rising “cleaved PARP positive nuclei fraction” value:
1. C[C@@H](N)c1ccc(C(=O)Nc2ccnc3[nH]ccc23)cc1 + CCCCCCCCc1ccc(CCC(N)(CO)CO)cc1 [fingolimod] (first compound 0.4 µM, partner dose 2 µM)  99.3%
2. Cn1cnc2c(F)c(Nc3ccc(Br)cc3Cl)c(C(=O)NOCCO)cc21 [selumetinib] + CCCCCCCCc1ccc(CCC(N)(CO)CO)cc1 [fingolimod] (first compound 0.015 µM, partner dose 2 µM)  182%
3. CC1(C)CCC(c2ccc(Cl)cc2)=C(CN2CCN(c3ccc(C(=O)NS(=O)(=O)c4ccc(N[C@H](CCN5CCOCC5)CSc5ccccc5)c(S(=O)(=O)C(F)(F)F)c4)cc3)CC2)C1 + Cc1cn(-c2cc(NC(=O)c3ccc(C)c(Nc4nccc(-c5cccnc5)n4)c3)cc(C(F)(F)F)c2)cn1 [nilotinib] (first compound 0.4 µM, partner dose 0.2 µM)  209%
4. CCCCCCCCc1ccc(CCC(N)(CO)CO)cc1 [fingolimod] + Nc1nc(F)nc2c1ncn2[C@@H]1O[C@H](CO)[C@@H](O)[C@@H]1O [fludarabine] (first compound 2 µM, partner dose 0.2 µM)  246%
5. C[C@]1(O)C[C@@H](c2nc(-c3ccc4ccc(-c5ccccc5)nc4c3)c3c(N)nccn32)C1 + Nc1ccn([C@@H]2O[C@H](CO)[C@@H](O)C2(F)F)c(=O)n1 [gemcitabine] (first compound 0.4 µM, partner dose 0.0004 µM)  486%
